Assay results as given in article PMC9423946.
These are yes or no findings as the source states them, for the method shown. Binding seen in cells or lysates may run through a third protein. Some entries that bind do so weakly or less than the wild type.

Sequences of proteins named here, by UniProt entry; tags and fusion partners are left off.
UniProt P35222: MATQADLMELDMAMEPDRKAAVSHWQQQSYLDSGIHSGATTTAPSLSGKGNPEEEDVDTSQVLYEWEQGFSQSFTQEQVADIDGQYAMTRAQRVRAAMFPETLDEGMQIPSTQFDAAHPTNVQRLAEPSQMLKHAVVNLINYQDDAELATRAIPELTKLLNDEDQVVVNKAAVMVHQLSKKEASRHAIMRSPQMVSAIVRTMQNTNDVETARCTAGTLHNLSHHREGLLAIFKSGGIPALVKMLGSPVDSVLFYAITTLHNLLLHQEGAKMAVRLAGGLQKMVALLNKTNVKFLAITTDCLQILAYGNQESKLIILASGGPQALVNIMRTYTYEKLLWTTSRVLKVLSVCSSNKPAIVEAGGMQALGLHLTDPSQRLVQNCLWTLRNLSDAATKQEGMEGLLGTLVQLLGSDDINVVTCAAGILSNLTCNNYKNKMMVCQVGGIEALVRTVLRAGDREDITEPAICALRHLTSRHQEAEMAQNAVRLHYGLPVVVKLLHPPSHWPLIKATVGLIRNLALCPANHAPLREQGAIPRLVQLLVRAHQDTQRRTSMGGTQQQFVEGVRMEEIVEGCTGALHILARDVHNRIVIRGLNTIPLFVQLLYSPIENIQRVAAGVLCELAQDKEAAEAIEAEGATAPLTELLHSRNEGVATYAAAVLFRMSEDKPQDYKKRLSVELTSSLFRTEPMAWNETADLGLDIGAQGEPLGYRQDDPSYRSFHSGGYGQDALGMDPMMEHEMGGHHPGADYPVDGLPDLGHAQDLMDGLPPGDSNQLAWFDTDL
UniProt Q86XT4: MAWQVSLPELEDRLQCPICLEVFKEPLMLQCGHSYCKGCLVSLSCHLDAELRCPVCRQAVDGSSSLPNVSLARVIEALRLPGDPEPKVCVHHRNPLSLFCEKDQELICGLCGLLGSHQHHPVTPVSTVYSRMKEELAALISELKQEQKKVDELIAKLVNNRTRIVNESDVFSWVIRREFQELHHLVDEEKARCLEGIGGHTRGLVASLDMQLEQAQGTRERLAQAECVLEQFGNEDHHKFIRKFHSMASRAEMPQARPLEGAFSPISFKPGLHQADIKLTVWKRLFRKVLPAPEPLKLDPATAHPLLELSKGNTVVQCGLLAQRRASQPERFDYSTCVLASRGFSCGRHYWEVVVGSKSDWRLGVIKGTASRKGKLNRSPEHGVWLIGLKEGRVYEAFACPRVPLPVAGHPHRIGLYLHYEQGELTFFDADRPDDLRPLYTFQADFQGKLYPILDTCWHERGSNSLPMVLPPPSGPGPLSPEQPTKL

Target: β-catenin (human (endogenous in AGS or SGC-7901)) (UniProt P35222)
Experiment: co-IP; total protein of AGS or SGC-7901 cells in RIPA buffer mixed with anti-TRIM50, anti-β-catenin or normal IgG; protein A/G agarose beads; washed 4 times; Western blot

binding: binds
Substance: Tripartite motif-containing 50 (TRIM50) (from UniProt Q86XT4 1-487)
